Results taken from patent publication US8420855B2, “Insecticidal compounds” (Syngenta Crop Protection LLC, priority 2006, dated 2013).
Some of these results come from one statement about several compounds together. For part of these data: At least one compound was matched to its structure with a doubt left.

How the values were obtained:
Format in all cases: in vivo
Diabrotica balteata = Diabrotica balteata (Corn root worm) artificial diet MTP test; settings: application rate of 200 ppm (concentration in well 18 ppm); L2 larvae; larval mortality, growth regulation after 5 days
Heliothis virescens = Heliothis virescens (Tobacco budworm) egg test on artificial diet; settings: application rate of 200 ppm (concentration in well 18 pm); eggs 0-24 h old; egg mortality, larval mortality, growth regulation after 4 days
Plutella xylostella = Plutella xylostella (Diamond back moth) artificial diet MTP test; settings: application rate of 200 ppm (concentration in well 18 ppm); L2 larvae; larval mortality, growth regulation after 6 days
Spodoptera littoralis = Spodoptera littoralis (Egyptian cotton leafworm) cotton leaf disc spray test; settings: application rate of 200 ppm; L1 larvae on cotton leaf discs; mortality, feeding behaviour, growth regulation 3 days after treatment
Aedes aegypti = Aedes aegypti (Yellow fever mosquito) larval test; settings: application rate of 2 ppm; L2 larvae; mortality and growth inhibition 2 days later

| Compound | control of Diabrotica balteata (Diabrotica balteata) | control of Heliothis virescens (Heliothis virescens) | control of Plutella xylostella (Plutella xylostella) | control of Spodoptera littoralis (Spodoptera littoralis) | control of Aedes aegypti (Aedes aegypti) |
| --- | --- | --- | --- | --- | --- |
| CCNc1ccc(C(=O)Nc2c(C)cc(C(F)(C(F)(F)F)C(F)(F)F)cc2C)cc1NC(=O)c1cccc(Cl)c1 [Compound A89] | at least 80% |  |  |  |  |
| CCNc1ccc(NC(=O)c2ccc(C#N)cc2)cc1C(=O)Nc1c(C)cc(C(F)(C(F)(F)F)C(F)(F)F)cc1C [Compound A15, 5-(4-cyano-benzoylamino)-N-[2,6-dimethyl-4-(1,2,2,2-tetrafluoro-1-trifluoromethyl-ethyl)-phenyl]-2-ethylamino-benzamide] | at least 80% |  |  |  |  |
| COc1cc(NC(=O)c2ccc(F)cc2)cc(C(=O)Nc2c(C)cc(C(F)(C(F)(F)F)C(F)(F)F)cc2C)c1 [Compound A112] | at least 80% | at least 80% | at least 80% | at least 80% | at least 80% |
| CCc1cc(C(F)(C(F)(F)F)C(F)(F)F)cc(CC)c1NC(=O)c1cc(OC)cc(NC(=O)c2ccc(F)cc2)c1OC [Compound D1] | at least 80% | at least 80% | at least 80% |  |  |
| CCc1cc(C(F)(C(F)(F)F)C(F)(F)F)cc(CC)c1NC(=O)c1cc(OC)cc(N(CC)C(=O)c2ccc(F)cc2)c1OC [Compound D2] | at least 80% | at least 80% | at least 80% | at least 80% |  |
| Cc1cc(C(F)(C(F)(F)F)C(F)(F)F)cc(C)c1NC(=O)c1ccc(N(C)C)c(NC(=O)c2ccc(C#N)cc2)c1 [Compound A16, 3-(4-Cyano-benzoylamino)-4-dimethylamino-N-[2,6-dimethyl-4-(1,2,2,2-tetrafluoro-1-trifluoromethyl-ethyl)-phenyl]-benzamide] |  | at least 80% | at least 80% |  | at least 80% |
| CCNc1ccc(C(=O)Nc2c(C)cc(C(F)(C(F)(F)F)C(F)(F)F)cc2C)cc1NC(=O)c1cccc(F)c1F [Compound A103] |  | at least 80% |  |  |  |
| CSc1ccc(C(=O)Nc2c(C)cc(C(F)(C(F)(F)F)C(F)(F)F)cc2C)cc1NC(=O)c1cccc(Cl)c1 [Compound A2] |  | at least 80% |  |  |  |
| Cc1cc(C(F)(C(F)(F)F)C(F)(F)F)cc(C)c1NC(=O)c1ccc(N(C)C)c(NC(=O)c2ccccc2)c1 [Compound A57] |  |  | at least 80% | at least 80% |  |
| CCNc1ccc(C(=O)Nc2c(C)cc(C(F)(C(F)(F)F)C(F)(F)F)cc2C)cc1NC(=O)c1ccccc1Cl [Compound A90] |  |  | at least 80% |  |  |
| CCNc1ccc(C(=O)Nc2c(C)cc(C(F)(C(F)(F)F)C(F)(F)F)cc2C)cc1NC(=O)c1ccc(C#N)cc1 [Compound A18] | at least 80% |  | at least 80% | at least 80% | at least 80% |
| CCNc1ccc(C(=O)Nc2c(C)cc(C(F)(C(F)(F)F)C(F)(F)F)cc2C)cc1NC(=O)c1cc(C)nn1C [Compound A106] |  |  | at least 80% |  |  |
| COc1ccc(NC(=O)c2ccc(F)cc2)c(OC)c1C(=O)Nc1c(C)cc(C(F)(C(F)(F)F)C(F)(F)F)cc1C [Compound A9] | at least 80% | at least 80% | at least 80% |  | at least 80% |
| CCNc1ccc(C(=O)Nc2c(C)cc(C(F)(C(F)(F)F)C(F)(F)F)cc2C)cc1NC(=O)c1ccc(F)cc1 [Compound A101] |  |  | at least 80% |  |  |
| Cc1cc(C(=O)Nc2cc(C(=O)Nc3c(C)cc(C(F)(C(F)(F)F)C(F)(F)F)cc3C)ccc2N(C)C)n(C)n1 [Compound A61] |  | at least 80% |  |  |  |
